Measurements from article doi:10.1101/2025.10.03.680331.

By UniProt entry, the sequences of proteins in these tests, tags left out.
UniProt Q8BK67: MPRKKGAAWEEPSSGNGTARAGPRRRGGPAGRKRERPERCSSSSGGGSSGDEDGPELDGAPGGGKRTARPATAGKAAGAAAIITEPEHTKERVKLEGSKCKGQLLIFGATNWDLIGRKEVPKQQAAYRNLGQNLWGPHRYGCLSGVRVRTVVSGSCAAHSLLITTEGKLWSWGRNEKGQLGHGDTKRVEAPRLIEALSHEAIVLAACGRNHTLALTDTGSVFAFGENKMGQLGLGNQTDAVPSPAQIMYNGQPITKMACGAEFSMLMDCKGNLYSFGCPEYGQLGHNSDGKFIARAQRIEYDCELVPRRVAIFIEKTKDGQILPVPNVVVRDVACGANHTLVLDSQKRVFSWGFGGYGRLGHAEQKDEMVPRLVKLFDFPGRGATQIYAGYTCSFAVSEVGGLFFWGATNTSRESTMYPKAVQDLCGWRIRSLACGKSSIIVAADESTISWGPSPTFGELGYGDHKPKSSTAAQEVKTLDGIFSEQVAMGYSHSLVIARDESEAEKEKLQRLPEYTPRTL
UniProt O70551: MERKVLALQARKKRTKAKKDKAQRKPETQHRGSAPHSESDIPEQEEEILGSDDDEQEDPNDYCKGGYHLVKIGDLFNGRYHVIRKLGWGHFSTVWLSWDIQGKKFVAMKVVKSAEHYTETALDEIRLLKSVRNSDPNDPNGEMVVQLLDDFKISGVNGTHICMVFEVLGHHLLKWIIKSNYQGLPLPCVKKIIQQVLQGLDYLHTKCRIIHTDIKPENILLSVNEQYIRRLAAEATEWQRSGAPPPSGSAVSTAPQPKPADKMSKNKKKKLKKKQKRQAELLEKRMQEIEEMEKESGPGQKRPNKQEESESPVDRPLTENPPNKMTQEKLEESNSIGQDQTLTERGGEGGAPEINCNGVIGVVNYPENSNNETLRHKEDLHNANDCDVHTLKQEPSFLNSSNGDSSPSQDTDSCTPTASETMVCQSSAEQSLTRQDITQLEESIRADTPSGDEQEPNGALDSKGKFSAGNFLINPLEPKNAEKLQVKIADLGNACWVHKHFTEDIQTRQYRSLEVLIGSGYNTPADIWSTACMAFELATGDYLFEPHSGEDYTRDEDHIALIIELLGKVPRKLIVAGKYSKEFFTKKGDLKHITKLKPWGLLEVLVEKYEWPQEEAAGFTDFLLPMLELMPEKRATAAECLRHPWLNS
UniProt O08788: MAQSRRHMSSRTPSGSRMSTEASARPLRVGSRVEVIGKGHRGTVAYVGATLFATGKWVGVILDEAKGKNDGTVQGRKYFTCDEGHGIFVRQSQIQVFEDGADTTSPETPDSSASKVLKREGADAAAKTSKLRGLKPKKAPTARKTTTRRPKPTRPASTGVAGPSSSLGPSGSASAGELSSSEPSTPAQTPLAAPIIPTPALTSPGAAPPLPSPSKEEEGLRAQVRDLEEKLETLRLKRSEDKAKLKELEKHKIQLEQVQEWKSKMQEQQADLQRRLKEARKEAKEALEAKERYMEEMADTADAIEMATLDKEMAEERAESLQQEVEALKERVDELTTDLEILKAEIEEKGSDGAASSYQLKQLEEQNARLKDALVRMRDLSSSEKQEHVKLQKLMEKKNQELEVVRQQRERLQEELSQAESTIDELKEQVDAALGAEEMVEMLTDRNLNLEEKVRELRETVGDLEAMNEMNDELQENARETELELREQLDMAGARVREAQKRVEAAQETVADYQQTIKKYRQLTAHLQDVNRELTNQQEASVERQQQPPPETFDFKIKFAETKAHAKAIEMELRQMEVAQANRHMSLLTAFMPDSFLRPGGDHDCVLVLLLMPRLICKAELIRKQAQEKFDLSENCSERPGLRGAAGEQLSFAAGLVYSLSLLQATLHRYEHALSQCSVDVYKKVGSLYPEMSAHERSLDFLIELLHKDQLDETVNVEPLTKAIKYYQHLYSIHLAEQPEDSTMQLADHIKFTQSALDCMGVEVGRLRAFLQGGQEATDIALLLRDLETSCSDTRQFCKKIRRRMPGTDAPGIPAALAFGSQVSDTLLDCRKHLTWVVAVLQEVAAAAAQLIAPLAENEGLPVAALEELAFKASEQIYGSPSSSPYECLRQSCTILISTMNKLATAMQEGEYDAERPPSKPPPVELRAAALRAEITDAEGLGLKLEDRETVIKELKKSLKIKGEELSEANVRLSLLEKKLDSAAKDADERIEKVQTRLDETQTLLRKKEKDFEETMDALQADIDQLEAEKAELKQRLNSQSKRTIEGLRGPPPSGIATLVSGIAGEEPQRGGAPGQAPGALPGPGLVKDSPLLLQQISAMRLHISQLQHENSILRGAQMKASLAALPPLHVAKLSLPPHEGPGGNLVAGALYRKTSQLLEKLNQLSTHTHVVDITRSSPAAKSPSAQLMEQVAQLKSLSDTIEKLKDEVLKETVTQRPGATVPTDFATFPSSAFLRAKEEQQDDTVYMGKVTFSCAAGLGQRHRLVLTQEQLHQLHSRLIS
UniProt Q8C863: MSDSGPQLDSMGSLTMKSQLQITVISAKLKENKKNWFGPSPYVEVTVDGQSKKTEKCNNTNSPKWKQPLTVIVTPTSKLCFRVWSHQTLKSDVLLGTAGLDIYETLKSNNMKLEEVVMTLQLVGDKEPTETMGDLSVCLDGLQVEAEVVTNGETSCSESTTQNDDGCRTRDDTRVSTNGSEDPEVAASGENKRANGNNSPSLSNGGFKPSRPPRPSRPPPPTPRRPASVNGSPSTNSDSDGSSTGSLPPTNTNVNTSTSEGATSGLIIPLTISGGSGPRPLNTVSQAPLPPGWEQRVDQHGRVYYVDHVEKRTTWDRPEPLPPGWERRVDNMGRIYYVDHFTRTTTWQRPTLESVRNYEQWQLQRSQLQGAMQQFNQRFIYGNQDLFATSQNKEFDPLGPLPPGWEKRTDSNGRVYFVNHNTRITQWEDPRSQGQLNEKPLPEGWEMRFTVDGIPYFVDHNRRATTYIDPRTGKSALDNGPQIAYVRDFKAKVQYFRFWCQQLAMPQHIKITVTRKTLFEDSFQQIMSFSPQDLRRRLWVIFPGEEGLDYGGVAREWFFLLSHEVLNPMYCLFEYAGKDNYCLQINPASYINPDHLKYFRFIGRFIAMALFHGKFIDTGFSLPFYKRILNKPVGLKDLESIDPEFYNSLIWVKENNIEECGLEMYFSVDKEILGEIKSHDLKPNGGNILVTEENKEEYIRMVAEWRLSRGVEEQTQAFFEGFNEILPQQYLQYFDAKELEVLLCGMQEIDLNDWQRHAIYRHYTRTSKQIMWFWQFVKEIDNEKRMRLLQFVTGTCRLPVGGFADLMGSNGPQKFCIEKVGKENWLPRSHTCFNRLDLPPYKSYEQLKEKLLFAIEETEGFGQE
UniProt O70161: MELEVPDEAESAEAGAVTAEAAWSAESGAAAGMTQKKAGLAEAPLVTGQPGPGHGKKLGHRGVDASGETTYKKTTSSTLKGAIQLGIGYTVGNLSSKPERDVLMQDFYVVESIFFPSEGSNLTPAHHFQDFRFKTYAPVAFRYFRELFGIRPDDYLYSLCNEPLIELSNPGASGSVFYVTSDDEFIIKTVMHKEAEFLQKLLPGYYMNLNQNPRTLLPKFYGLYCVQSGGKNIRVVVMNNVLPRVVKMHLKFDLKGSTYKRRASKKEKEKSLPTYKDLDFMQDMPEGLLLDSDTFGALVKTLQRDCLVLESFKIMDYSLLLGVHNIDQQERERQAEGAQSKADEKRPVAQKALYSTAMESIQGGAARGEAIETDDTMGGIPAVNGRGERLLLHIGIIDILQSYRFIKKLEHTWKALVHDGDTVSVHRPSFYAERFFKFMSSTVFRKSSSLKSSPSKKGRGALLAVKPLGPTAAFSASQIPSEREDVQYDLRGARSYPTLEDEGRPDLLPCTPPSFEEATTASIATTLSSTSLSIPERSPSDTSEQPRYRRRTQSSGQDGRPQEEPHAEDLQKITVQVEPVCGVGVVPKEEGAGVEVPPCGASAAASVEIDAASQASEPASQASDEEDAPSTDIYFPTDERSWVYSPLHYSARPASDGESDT
UniProt P52479: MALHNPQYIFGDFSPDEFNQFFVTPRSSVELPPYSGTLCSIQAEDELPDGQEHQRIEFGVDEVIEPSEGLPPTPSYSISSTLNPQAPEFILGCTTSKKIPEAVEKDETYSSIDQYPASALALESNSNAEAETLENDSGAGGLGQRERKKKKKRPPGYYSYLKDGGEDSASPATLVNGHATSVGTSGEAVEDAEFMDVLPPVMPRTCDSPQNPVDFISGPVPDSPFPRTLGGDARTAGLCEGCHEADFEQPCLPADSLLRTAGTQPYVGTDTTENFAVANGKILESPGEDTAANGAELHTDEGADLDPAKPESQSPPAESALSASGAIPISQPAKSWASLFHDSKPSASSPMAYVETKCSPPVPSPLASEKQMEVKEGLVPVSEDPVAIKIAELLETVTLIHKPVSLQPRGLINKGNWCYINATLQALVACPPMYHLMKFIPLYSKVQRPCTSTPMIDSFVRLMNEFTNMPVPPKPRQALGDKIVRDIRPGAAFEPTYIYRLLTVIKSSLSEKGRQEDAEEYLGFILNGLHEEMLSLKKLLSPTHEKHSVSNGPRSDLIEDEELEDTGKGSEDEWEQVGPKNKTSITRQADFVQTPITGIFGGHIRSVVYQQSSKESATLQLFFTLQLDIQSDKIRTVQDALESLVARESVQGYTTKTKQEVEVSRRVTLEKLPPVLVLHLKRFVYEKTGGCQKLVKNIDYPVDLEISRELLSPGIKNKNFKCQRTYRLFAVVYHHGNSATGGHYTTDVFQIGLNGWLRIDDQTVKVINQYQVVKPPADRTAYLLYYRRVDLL
UniProt P60879: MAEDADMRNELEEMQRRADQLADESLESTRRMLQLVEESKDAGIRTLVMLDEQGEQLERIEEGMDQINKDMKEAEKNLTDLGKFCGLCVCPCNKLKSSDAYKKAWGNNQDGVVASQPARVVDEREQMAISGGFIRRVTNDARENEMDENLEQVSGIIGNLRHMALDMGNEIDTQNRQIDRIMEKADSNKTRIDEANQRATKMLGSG
UniProt Q9DBH0: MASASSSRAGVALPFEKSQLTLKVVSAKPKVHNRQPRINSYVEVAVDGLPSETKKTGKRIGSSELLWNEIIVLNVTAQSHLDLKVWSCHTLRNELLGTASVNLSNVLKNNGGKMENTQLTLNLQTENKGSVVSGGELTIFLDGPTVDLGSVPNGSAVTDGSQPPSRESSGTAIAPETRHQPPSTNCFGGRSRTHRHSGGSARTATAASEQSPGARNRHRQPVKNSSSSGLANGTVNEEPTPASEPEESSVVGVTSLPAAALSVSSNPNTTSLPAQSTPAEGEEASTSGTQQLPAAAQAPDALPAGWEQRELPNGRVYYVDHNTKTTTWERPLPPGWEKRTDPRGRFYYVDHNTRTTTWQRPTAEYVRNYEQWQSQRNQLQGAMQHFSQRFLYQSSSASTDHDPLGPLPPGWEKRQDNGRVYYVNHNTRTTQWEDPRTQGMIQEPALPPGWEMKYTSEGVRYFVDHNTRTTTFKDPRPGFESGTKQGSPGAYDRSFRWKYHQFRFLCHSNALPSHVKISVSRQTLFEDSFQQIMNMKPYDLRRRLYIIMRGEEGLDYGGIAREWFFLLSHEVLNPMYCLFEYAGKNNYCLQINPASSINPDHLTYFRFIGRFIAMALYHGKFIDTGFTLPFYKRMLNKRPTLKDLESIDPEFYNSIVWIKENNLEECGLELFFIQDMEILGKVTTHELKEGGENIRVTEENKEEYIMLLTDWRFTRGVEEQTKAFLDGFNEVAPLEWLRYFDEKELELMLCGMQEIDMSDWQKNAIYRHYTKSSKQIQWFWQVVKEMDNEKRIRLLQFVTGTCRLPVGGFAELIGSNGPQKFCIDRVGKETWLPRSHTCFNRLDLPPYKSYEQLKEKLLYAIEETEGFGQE
UniProt Q03141: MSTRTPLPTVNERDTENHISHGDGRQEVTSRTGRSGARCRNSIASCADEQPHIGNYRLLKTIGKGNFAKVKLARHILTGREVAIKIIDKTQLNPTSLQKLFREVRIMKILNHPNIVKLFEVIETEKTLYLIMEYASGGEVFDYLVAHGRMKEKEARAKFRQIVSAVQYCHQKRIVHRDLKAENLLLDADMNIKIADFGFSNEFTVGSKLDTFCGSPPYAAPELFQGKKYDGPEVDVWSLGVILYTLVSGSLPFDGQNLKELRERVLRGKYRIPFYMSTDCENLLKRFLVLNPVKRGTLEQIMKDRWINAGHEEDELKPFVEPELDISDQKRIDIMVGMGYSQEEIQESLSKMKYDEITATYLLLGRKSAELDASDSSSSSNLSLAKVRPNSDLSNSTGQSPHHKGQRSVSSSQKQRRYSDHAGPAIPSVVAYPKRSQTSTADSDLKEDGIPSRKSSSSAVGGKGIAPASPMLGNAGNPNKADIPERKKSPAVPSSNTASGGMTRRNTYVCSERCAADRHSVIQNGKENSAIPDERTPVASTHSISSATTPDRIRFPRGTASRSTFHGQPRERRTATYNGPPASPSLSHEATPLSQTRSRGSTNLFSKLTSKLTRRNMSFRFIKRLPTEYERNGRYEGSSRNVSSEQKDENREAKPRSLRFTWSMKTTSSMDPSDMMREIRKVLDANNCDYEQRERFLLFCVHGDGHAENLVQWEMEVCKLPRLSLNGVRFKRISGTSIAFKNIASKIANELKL

B1: Rho guanine nucleotide exchange factor 2 (protein, UniProt Q60875 1-985)
chain: MSRIESLTRARIDRSKEQATKTREKEKMKEAKDARYTNGHLFTTISVSGMTMCYACNKSITAKEALICPTCNVTIHNRCKDTLANCTKVKQKQQKAALLRNNTALQSVSLRSKTTTRERPTSAIYPSDSFRQSLLGSRRGLSSLSLAKSVSTTNIAGHFNDESPLGLRQILSQSTDSLNMRNRTLSVESLIDEGVEVFYNELMSDFEMDEKDFEADSWSLAVDSSFLQQHKKEVMKKQDVIYELIQTELHHVRTLKIMTRLFRTGMLEELQMEPEVVQGLFPCVDELSDIHTRFLNQLLERRRQALCPGSTRNFVIHRLGDLLISQFSGSNAEQMRKTYSEFCSRHTKALKLYKELYARDKRFQQFIRKMTRSAVLKRHGVQECILLVTQRITKYPVLINRILQNSHGVEEEYQDLASALGLVKELLSNVDQDVHELEKEARLQEIYNRMDPRAQTPVPGKGPFGRDELLRRKLIHEGCLLWKTATGRFKDVLLLLMTDVLVFLQEKDQKYIFTSLDKPSVVSLQNLIVRDIANQAKGMFLISSGPPEMYEVHAASRDDRTTWIRVIQQSVRLCPSREDFPLIETEDKAYLRRIKTKLQQKNQALVELLQKNVELFAEMVHFQALKAGFVGMPPPALPRGLFRLESFESLRGERLLKDALREVEGLKDLLLGPCVDLPMTSREPALPLDSDSGSCPGVTANGEARTFNGSIELCRADSDSSQKDRNGNQLRSPQEEVLQPLINLYGLLHGLQAVVVQQERLMEALFPEGPERWEKLSRANSRDGEAGRAAVASVTPEKQATELALLQRQHTLLQEELRRCQRLGEERATEAGSLEARLRESEQARALLEREAEEIRRQLAALGQNEPLPAEAPWARRPLDPRRRSLPAGDALYLSFNPPQPSRGHDRLDLPVTVRSLHRPFDDREAQELGSPEDRLQDSSDPDTGSEEEVSSRLSPPHSPRDFTRMQDIPEETESRDGEPTASES
B2: DAB2 interacting protein (protein, UniProt Q3UHC7 1-1189)
chain: MSAGGNARKSTGRPSYYYRLLRRPRLQRQRSRSRSRTRPARESPQERPGSRRSLPGSMSEKNPSMEPSASTPFRVTGFLSRRLKGSIKRTKSQPKLDRNHSFRHILPGFRSAAAAAADNERSHLMPRLKESRSHESLLSPSSAVEALDLSMEEEVIIKPVHSSILGQDYCFEVTTSSGSKCFSCRSAAERDKWMENLRRAVHPNKDNSRRVEHILKLWVIEAKDLPAKKKYLCELCLDDVLYARTTSKLKTDNVFWGEHFEFHNLPPLRTVTVHLYRETDKKKKKERNSYLGLVSLPAASVAGRQFVEKWYPVVTPNPKGGKGPGPMIRIKARYQTVSILPMEMYKEFAEHITNHYLGLCAALEPILSAKTKEEMASALVHILQSTGKVKDFLTDLMMSEVDRCGDNEHLIFRENTLATKAIEEYLKLVGQKYLQDALGEFIKALYESDENCEVDPSKCSSADLPEHQGNLKMCCELAFCKIINSYCVFPRELKEVFASWRQECSSRGRPDISERLISASLFLRFLCPAIMSPSLFNLLQEYPDDRTARTLTLIAKVTQNLANFAKFGSKEEYMSFMNQFLEHEWTNMQRFLLEISNPETLSNTAGFEGYIDLGRELSSLHSLLWEAVSQLDQSVVSKLGPLPRILRDVHTALSTPGSGQLPGTNDLASTPGSGSSSVSAGLQKMVIENDLSGLIDFTRLPSPTPENKDLFFVTRSSGVQPSPARSSSYSEANEPDLQMANGSKSLSMVDLQDARTLDGEAGSPVGPDALPADGQVPATQLLAGWPARAAPVSLAGLATVRRAVPTPTTPGTSEGAPGRPQLLAPLSFQNPVYQMAAGLPLSPRGLGDSGSEGHSSLSSHSNSEELAAAAKLGSFSTAAEELARRPGELARRQMSLTEKGGQPTVPRQNSAGPQRRIDQPPPPPPPPPPAPRGRTPPTLLSTLQYPRPSSGTLASASPDWAGPGTRLRQQSSSSKGDSPELKPRAMHKQGPSPVSPNALDRTAAWLLTMNAQLLEDEGLGPDPPHRDRLRSKEELSQAEKDLAVLQDKLRISTKKLEEYETLFKCQEETTQKLVLEYQARLEEGEERLRRQQEDKDIQMKGIISRLMSVEEELKKDHAEMQAAVDSKQKIIDAQEKRIASLDAANARLMSALTQLKERYSMQARNGVSPTNPTKLQITENGEFRNSSNC
B3: C1QBP (p32) (protein, UniProt O35658 71-278)
chain: LHTEGDKAFVEFLTDEIKEEKKIQKHKSLPKMSGDWELEVNGTEAKLLRKVAGEKITVTFNINNSIPPTFDGEEEPSQGQKAEEQEPERTSTPNFVVEVTKTDGKKTLVLDCHYPEDEIGHEDEAESDIFSIKEVSFQATGDSEWRDTNYTLNTDSLDWALYDHLMDFLADRGVDNTFADELVELSTALEHQEYITFLEDLKSFVKNQ
B4: MYEF2 (protein, UniProt Q8C854 1-591)
chain: MADADKSEAAAGDDGSQQQPAEPRRDTHPGEPEKPPRSSANGVKMENDESVKEEKSDLKEKSTGNKKANRFHPYSKDKNSGTGEKKGPNRNRVFISNIPYDMKWQAIKDLMREKVGEVTYVELFKDAEGKSRGCGVVEFKDEEFVKKALETMNKYDLSGRPLNIKEDPDGENARRALQRTGTSFQGSHASDVGSGLVNLPPSILNNPNIPPEVISNLQAGRLGSTIFVANLDFKVGWKKLKEVFSIAGTVKRADIKEDKDGKSRGMGTVTFEQAIEAVQAISMFNGQFLFDRPMHVKMDDKSVPHEDYRSHDSKTSQLPRGLGGIGMGLGPGGQPISASQLNITGVMGNLGPSGMGMDGPGFGGVNRIGGGVGFGGLEAMNSMAGFGGVGRMGELYRGAMTSSMERDFGRGDIGLSRGFGDSFGRLGSAMIGGFAGRIGASNMGPVGTGISGSMSGMSTVTGGMGMGLDRMSSSFDRMGPGIGAILERSIDVDRGFLSGPMGSGMRDRLGSKGNQIFVRNLPFDLTWQKLKEKFSQCGHVMFAEIKMENGKSKGCGTVRFESAESAEKACRIMNGIKISGREIDVRLDRNA

These molecules were tested against T1, GST-tagged mouse GlialCAM cytosolic tail (mouse) (UniProt Q640R3) (assay: affinity purification with mass spectrometry).
T1 sequence: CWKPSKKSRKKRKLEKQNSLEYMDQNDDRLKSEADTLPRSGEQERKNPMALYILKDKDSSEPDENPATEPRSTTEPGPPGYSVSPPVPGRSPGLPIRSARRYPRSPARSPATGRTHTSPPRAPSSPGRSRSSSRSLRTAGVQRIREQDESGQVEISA

binding, binds:
RCC2 (from UniProt Q8BK67 1-520)
DGKZ (from UniProt Q80UP3 1-929)
MAP2K1 (from UniProt P31938 1-393)
MTCL1 (from UniProt Q3UHU5 1-1945)
SRPK1 (from UniProt O70551 1-648)
MAP1B (from UniProt P14873 1-2464)
KIF21A (from UniProt Q9QXL2 1-1672)
MACF1 (from UniProt Q9QXZ0 1-7354)
DCTN1 (from UniProt O08788 1-1281)
SRPK2 (from UniProt O54781 1-681)
AGAP1 (from UniProt Q8BXK8 1-857)
ITCH (from UniProt Q8C863 1-864)
CAPZA2 (from UniProt P47754 1-286)
Thsd7a (from UniProt Q69ZU6 39-1645)
NED4L (from UniProt Q8CFI0 1-1004)
phosphatidylinositol-4-phosphate 5-kinase type-1 gamma (from UniProt O70161 1-661)
DGKI (from UniProt D3YWQ0 1-1050)
USP10 (from UniProt P52479 1-792)
myelin basic protein (from UniProt P04370-5)
NPM1 (from UniProt Q61937 1-292)
ATP2B1 (from UniProt G5E829 1-1220)
MYO6 (from UniProt Q64331 1-1262)
MAP1A (from UniProt Q9QYR6 1-2776)
MARK2 (from UniProt Q05512 1-776)
EPB41L3 (from UniProt Q9WV92 1-929)
synaptosome-associated protein 25 (from UniProt P60879 1-206)
WWP2 (from UniProt Q9DBH0 1-870)
MARK3 (from UniProt Q03141 1-753)
SYT7 (from UniProt Q9R0N7 1-403)
B1
B2
B3
B4

These are yes or no findings as the source states them, for the method shown. In cells and extracts the contact can be indirect. These calls come from enrichment with a bait or labelling near it, and not all partners need be listed. Tags and fused reporters may be left off the sequences shown.
